Data reported in patent US20180346731A1, “Formation of Stable Pyranoanthocyanins, and Uses Thereof as Sources of Natural Color” (Ohio State Innovation Foundation, priority 2017, published 2018).
At least one structure is not confirmed: it was looked up by name or label, or the drawing left a doubt. Some results were stated once for a whole list of compounds, not compound by compound.

What was measured:
Format in all cases: physicochemical
[1] = Colorimetry (CIEL*c*h*, ΔE) of pigment solutions with ascorbic acid
Description: The semi-purified chokeberry extract, the isolated cyanidin-3-galactoside, and the purified 5-carboxypyranocyanidin-3-galactoside were diluted in pH 3.0 citrate buffer (0.1 M adjusted with HCl) until an absorbance of 1.0 at their respective λmax was reached. Levels of AA of 250, 500, and 1000 mg/L were added using a concentrated ascorbic acid stock solution, and a control consisting of each pigment with the absence of AA was maintained. The control consisted of the pigment in the buffer in the absence of AA. An additional test was performed with the same model juice using hydrogen peroxide, a known degradation product of AA. To determine if AA bleaching was due to formation of H2O2, direct addition of it was investigated. In place of added AA, a 62.2 μL of a 0.3% peroxide solution was added to match the molar equivalency of the 500 mg/L AA level, which was 2.84 mM.
All samples were brought to the same final volume with additional citrate buffer. […] Samples were stored in the dark at 25° C. in an incubator. UV-Vis spectrophotometry, colorimetry, and HPLC analyses were conducted over a 5 day period following the addition of ascorbic acid or hydrogen peroxide. UV-Vis spectral data was collected every hour for the first 8 hours, and then at 12 hr, and daily from that point on for 5 days. […] HPLC analyses were conducted on days 0, 1, 3, and 5. All treatments were run in triplicate.
Using UV-Vis spectral data (5 nm steps, 380-700 nm) in combination with software written for color conversion, absorbance data was translated to CIE-L*c*h*. The calculations for CIE-L*c*h* implemented by the software used CIE relative spectral power distribution for a D65 standard illuminants and 10° observer angle function. Color data is reported as L* (lightness), c* (chroma), and h* (hue angle).
Total color changes (ΔE) were calculated as the color change from day 0 to 5 for each respective treatment, and presented in Table 4.
Numbers are means of 3 replications, followed by (standard deviations). ΔE: total color change from day 0 (control) to day 5.

[2] = HPLC monitoring of pigment peaks with ascorbic acid; settings: 1000 mg/L AA
Description: Prior to experimentation, pigments were evaluated for purity by using an analytical HPLC only different from the previously listed one by the use of different pumps (LC-20AD, Shimadzu, Md., US). Purified pigments were filtered using the Phenex RC 0.45 μm membranes. A binary system with 1 mL/min flow rate was used: solvent A: 4.5% formic acid in HPLC grade water and solvent B: HPLC grade acetonitrile. The gradient began with an isocratic flow of 6% solvent B for 17 minutes (elution of primary anthocyanins), increasing to 15% solvent B by 45 minutes (elution of primary pyranoanthocyanins), and to 40% solvent B by 50 minutes. A 10 μL injection volume was loaded onto a Phenomenex Kinetix 5 μm EVO C18 100 A. 150×4.6 mm column and Phenomenex Ultra UHPLC EVO C18 guard cartridge attached.
The semi-purified chokeberry extract, the isolated cyanidin-3-galactoside, and the purified 5-carboxypyranocyanidin-3-galactoside were diluted in pH 3.0 citrate buffer (0.1 M adjusted with HCl) until an absorbance of 1.0 at their respective λmax was reached. […]
Prepared solutions were monitored to determine the formation of potential degradation products or profile changes. Using the analytical HPLC system and conditions described, chromatograms were monitored with the max plot (260-700 nm), 490 nm (near λmax of 5-carboxypyranocyanidin-3-galactoside), and 520 nm (near ma of cyanidin-3-galactoside). […]

[3] = UV-Vis absorbance loss and first-order bleaching kinetics of pigment solutions with ascorbic acid (pH 3.0 citrate buffer, 25° C., dark); settings: over the 5 days of AA treatment, regardless of AA level
Description: The semi-purified chokeberry extract, the isolated cyanidin-3-galactoside, and the purified 5-carboxypyranocyanidin-3-galactoside were diluted in pH 3.0 citrate buffer (0.1 M adjusted with HCl) until an absorbance of 1.0 at their respective λmax was reached. Levels of AA of 250, 500, and 1000 mg/L were added using a concentrated ascorbic acid stock solution, and a control consisting of each pigment with the absence of AA was maintained. The control consisted of the pigment in the buffer in the absence of AA. An additional test was performed with the same model juice using hydrogen peroxide, a known degradation product of AA. […] A SpectraMax 190 Microplate Reader (Molecular Devices, Sunnyvale, Calif., U.S.) with a 96-well plate (poly-D-lysine coated polystyrene) were used for the evaluation of absorbance from 380-700 nm, 1 nm intervals. […] Because of the rapid nature of AA-induced color loss, degradation kinetics were evaluated in terms of change in maximum absorbance at the original λmax over time. […] The decrease in maximum absorbance correlated with an increase in lightness (L*) as well as the decrease in chroma (c*). The reduction in maximum absorbance did closely follow first-order kinetics for chokeberry extract and cyanidin-3-galactoside but slightly deviated for 5-carboxypyranocyanidin-3-galactoside. […]

## O=C(O)C1=Cc2c(O[C@@H]3O[C@H](CO)[C@H](O)[C@H](O)[C@H]3O)c(-c3ccc(O)c(O)c3)[o+]c3cc(O)cc(c23)O1 [5-carboxypyranocyanidin-3-galactoside]
[1]; 1000 mg/L AA
  Chroma Day 0: 55/6 (0.7)
[2]
  target peaks / original pigments left after 5 days: less than 1%

## OC[C@H]1O[C@@H](Oc2cc3c(O)cc(O)cc3[o+]c2-c2ccc(O)c(O)c2)[C@H](O)[C@@H](O)[C@H]1O [Cyanidin-3-galactoside, cyanidin-3-galactoside]
[3]
  hypsochromic shift of λmax: less than 5 nm
[1]; all levels of AA addition
  ΔE (total color change day 0 to 5) as stated in text: greater than 29
[1]; day 0, listed as cyandin-3-galactoside
  initial hue angle: < 20 °
[2]
  target peaks / original pigments left after 5 days: less than 1%
